# Results are given in words; binding and its absence hold for the method and conditions named. For some assays here: In cells and extracts the contact can be indirect. Some results given as binding are weak or reduced against the parent protein; the word gives no strength. Tags and fused reporters may be left off the sequences shown.
# Amino acid sequences for entries named in this document (tags omitted). Residues count along the entry.
# UniProt Q15303, residues 26-1308: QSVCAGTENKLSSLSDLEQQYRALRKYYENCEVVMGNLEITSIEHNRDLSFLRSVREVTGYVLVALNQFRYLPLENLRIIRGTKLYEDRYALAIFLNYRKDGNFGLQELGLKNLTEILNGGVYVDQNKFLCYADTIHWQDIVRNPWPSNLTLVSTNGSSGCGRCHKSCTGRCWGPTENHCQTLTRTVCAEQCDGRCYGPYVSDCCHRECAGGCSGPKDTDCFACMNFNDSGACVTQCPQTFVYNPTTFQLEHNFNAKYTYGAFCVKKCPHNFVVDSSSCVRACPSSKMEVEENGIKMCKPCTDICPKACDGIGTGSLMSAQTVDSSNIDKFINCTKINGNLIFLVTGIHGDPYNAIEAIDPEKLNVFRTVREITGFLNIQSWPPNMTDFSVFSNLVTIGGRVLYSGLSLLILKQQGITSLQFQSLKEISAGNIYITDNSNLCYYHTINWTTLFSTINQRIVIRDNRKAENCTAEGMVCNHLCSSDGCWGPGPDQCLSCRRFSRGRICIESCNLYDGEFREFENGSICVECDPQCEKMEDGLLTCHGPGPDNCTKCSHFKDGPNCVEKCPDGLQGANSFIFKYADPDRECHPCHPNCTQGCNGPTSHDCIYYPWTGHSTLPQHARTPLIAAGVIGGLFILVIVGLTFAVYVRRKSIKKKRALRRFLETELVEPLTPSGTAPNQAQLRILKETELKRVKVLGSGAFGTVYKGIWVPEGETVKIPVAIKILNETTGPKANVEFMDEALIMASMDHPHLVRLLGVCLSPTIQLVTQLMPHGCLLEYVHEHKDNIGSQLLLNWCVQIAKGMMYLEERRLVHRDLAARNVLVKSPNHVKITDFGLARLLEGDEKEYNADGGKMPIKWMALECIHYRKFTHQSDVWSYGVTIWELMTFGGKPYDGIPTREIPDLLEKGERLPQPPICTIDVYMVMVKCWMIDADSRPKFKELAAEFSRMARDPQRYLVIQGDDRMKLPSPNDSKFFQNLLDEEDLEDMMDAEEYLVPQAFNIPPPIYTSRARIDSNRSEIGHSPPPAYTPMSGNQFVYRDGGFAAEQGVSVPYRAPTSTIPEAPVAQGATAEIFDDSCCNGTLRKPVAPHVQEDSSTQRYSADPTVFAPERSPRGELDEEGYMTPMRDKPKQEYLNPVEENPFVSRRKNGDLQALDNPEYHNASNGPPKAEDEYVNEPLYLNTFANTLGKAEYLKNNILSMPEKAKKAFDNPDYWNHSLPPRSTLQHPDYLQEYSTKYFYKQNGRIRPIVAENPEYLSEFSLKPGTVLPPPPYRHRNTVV
# B1: GST fusion protein of clone 32 encompassing Nrdp1 residues I135 to I317 (other)
# chain: IKHLRSVVQQQQTRIAELEKTSAEHKHQLAEQKRDIQLLKAYMRAIRSVNPNLQNLEETIEYNEILEWVNSLQPARVTRWGGMISTPDAVLQAVIKRSLVESGCPASIVNELIENAHERSWPQGLATLETRQMNRRYYENYVAKRIPGKQAVVVMACENQHMGDDMVQEPGLVMIFAHGVEEI
# notes: Expressed in bacteria and immobilized on beads (3 ug) for the pull-downs; also called GST-32; GST fusion of clone 32; not shown: glutathione S-transferase encoded by the pGEX vector
# B2: clone 32-encoded polypeptide fused to the activation domain of GAL4 (yeast two-hybrid prey) (protein, not shown: large carriers)
# chain: B1 chain
# B3: Nrdp1 tagged at its amino terminus with FLAG epitope (baculovirus, Sf9 insect cells) (other)
# chain: DYKDDDDKMGYDVTRFQGDVDEDLICPICSGVLEEPVQAPHCEHAFCNACITQWFSQQQTCPVDRSVVTVAHLRPVPRIMRNMLSKLQIACDNAVFGCSAVVRLDNLMSHLSDCEHNPKRPVTCEQGCGLEMPKDELPNHNCIKHLRSVVQQQQTRIAELEKTSAEHKHQLAEQKRDIQLLKAYMRAIRSVNPNLQNLEETIEYNEILEWVNSLQPARVTRWGGMISTPDAVLQAVIKRSLVESGCPASIVNELIENAHERSWPQGLATLETRQMNRRYYENYVAKRIPGKQAVVVMACENQHMGDDMVQEPGLVMIFAHGVEEI
# notes: Construct used for the Sf9 co-immunoprecipitations; also called FLAG-Nrdp1; neuregulin receptor degradation protein-1
# How the values were obtained:
# bovine ErbB3 (bovine) [1] = molecular target: bovine ErbB3 (bovine) (UniProt A6QR62); test: GST pull-down from Sf9 lysates, receptor blot
# human ErbB4 (human) [2] = molecular target: human ErbB4 (human) (UniProt Q15303); test: GST pull-down from Sf9 lysates, receptor blot
# human ErbB4 (human) [3] = molecular target: human ErbB4 (human) (UniProt Q15303); test: GST pull-down of ErbB4 expressed in Sf9 cells
# [4] = molecular target: T1, entire intracellular portion of bovine ErbB3 (residues W665 to I1335) in pAS1 bait plasmid (bovine) (UniProt A6QR62); test: yeast two-hybrid screen
# T1 sequence: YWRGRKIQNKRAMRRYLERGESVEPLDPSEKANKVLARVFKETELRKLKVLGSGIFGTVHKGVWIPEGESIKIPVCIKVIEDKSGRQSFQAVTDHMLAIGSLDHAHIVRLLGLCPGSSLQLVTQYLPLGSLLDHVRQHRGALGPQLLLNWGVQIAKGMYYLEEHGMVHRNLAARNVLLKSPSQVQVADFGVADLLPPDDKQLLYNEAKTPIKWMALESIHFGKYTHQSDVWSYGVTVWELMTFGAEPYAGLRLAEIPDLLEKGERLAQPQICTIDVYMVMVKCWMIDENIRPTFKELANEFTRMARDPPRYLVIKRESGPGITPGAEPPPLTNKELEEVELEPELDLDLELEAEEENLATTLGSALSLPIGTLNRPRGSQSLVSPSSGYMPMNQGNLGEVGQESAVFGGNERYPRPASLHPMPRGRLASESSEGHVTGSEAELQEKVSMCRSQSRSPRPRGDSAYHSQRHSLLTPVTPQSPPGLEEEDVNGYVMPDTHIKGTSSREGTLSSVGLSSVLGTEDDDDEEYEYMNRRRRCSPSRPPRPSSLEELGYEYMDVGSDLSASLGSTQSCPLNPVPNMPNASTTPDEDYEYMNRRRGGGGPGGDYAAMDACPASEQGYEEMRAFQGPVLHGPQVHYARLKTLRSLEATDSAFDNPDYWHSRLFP
# bovine ErbB3 (bovine) [5] = molecular target: bovine ErbB3 (bovine) (UniProt A6QR62); test: summary of the examples (co-immunoprecipitation and pull-down)
# human ErbB4 (human) [6] = molecular target: human ErbB4 (human) (UniProt Q15303); test: as above
# bovine ErbB3 (bovine) [7] = molecular target: bovine ErbB3 (bovine) (UniProt A6QR62); test: co-immunoprecipitation from co-infected Sf9 cells, anti-FLAG blot
# human ErbB4 (human) [8] = molecular target: human ErbB4 (human) (UniProt Q15303); test: as above
binder,measurement,setting,value
B1,binding,bovine ErbB3 (bovine) [1],binds
same,binding,human ErbB4 (human) [2],binds
same,binding,human ErbB4 (human) [3],binds
B2,binding,[4],binds
B3,binding,bovine ErbB3 (bovine) [5],binds
same,binding,human ErbB4 (human) [6],binds
same,binding,bovine ErbB3 (bovine) [7],binds
same,binding,human ErbB4 (human) [8],binds

# — US20070197431A1 (published 2007)
